# Assay results

The results are deposited in PubChem (AID1080; Emory University Molecular Libraries Screening Center, 2008).

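A counter-screen in EP4-overexpressing cells measuring cyclic AMP with a time-resolved FRET kit under weak PGE2 stimulation.
Compounds were tested at 20 µM final. A low (about EC15) PGE2 dose was present.
Percent cAMP induction as a fraction of the 1 µM PGE2 response, averaged over three replicates; a higher value means more cAMP.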

Values are in %.
Common to all entries: measured here: EP4 receptor counter-screen.
Part of the compounds only, not a random draw; the main read-out is not listed here.

SMILES,tested on / at,cAMP induction (%)
CCC(c1nnnn1Cc1ccco1)N(Cc1cc2cc(C)cc(C)c2[nH]c1=O)CC1CCCO1 (configuration not stated),percent of 1 uM PGE2 response; plus low (about EC15) PGE2 agonist,4.003
Cc1ccc(N(Cc2ccccc2)Cc2ccccc2)cc1,percent of 1 uM PGE2 response; plus low (about EC15) PGE2 agonist,13.52
COc1cc(C)c(NC(c2ccccc2)c2ccccc2)cc1OC,percent of 1 uM PGE2 response; plus low (about EC15) PGE2 agonist,-10.42
COc1ccc(C(=O)N2N=C(c3ccccc3)CC2(O)C(F)(F)F)cc1 (configuration not stated),percent of 1 uM PGE2 response; plus low (about EC15) PGE2 agonist,-0.9767
O=C(Nc1ccccc1N1CCN(c2ccccc2)CC1)C12CC3CC(CC(C3)C1)C2,percent of 1 uM PGE2 response; plus low (about EC15) PGE2 agonist,3.463
Cc1cc(-c2sccc2C)nc(-n2cccc2)n1,percent of 1 uM PGE2 response; plus low (about EC15) PGE2 agonist,22.9
S=c1[nH]nc(C2CCCCC2)n1Cc1ccccc1,percent of 1 uM PGE2 response; plus low (about EC15) PGE2 agonist,-1.437
CC(OC(=O)c1oc2ccccc2c1COc1ccccc1)C(=O)NC(N)=O (configuration not stated),percent of 1 uM PGE2 response; plus low (about EC15) PGE2 agonist,-0.06667
C[C@H](CCC(=O)O)[C@@H]1CC[C@@H]2[C@H]3CC[C@@H]4C[C@H](O)CC[C@@]4(C)[C@@H]3CC[C@]21C,percent of 1 uM PGE2 response; plus low (about EC15) PGE2 agonist,1.64
CCOc1ccccc1NC(=O)c1c(Br)cnn1C,percent of 1 uM PGE2 response; plus low (about EC15) PGE2 agonist,14.24
Cc1cc(Oc2ccccc2)nc(NCc2ccccc2)n1,percent of 1 uM PGE2 response; plus low (about EC15) PGE2 agonist,-8.59
CCCCC(=O)C1CCN(Cc2ccccc2)CC1,percent of 1 uM PGE2 response; plus low (about EC15) PGE2 agonist,0.58
CSc1nc(Oc2ccccc2)c2sccc2n1,percent of 1 uM PGE2 response; plus low (about EC15) PGE2 agonist,8.617
O=c1c2ccccc2c(=O)n(Cc2ccccc2)n1Cc1ccccc1,percent of 1 uM PGE2 response; plus low (about EC15) PGE2 agonist,-4.777
COc1ccc(-c2noc(-c3ccccc3-c3ccccc3)n2)cc1OC,percent of 1 uM PGE2 response; plus low (about EC15) PGE2 agonist,1.273
Cc1cccc(C)c1OC(=O)C(c1ccccc1)c1ccccc1,percent of 1 uM PGE2 response; plus low (about EC15) PGE2 agonist,-1.643
CCOP(=O)(OCC)c1nc(-c2ccc(F)cc2)oc1NCc1ccccc1,percent of 1 uM PGE2 response; plus low (about EC15) PGE2 agonist,-1.397
CC(C)c1ccc2c(c1)CCC1C(C)(C(N)=O)CCCC21C (configuration not stated),percent of 1 uM PGE2 response; plus low (about EC15) PGE2 agonist,-10.11

The last 2 entries again:

| SMILES | tested on / at | cAMP induction (%) |
|---|---|---|
| `CCOP(=O)(OCC)c1nc(-c2ccc(F)cc2)oc1NCc1ccccc1` | percent of 1 uM PGE2 response; plus low (about EC15) PGE2 agonist | -1.397 |
| `CC(C)c1ccc2c(c1)CCC1C(C)(C(N)=O)CCCC21C` (configuration not stated) | percent of 1 uM PGE2 response; plus low (about EC15) PGE2 agonist | -10.11 |